# Measurements as given in the supplement of paper PMC12067093, “Discovery and optimisation of a covalent ligand for TRIM25 and its application to targeted protein ubiquitination” (Chemical Science, 2025).
# By UniProt entry, the sequences of proteins in these tests, tags left out. Where a name states a change or a piece, a line headed by the entry shows the natural chain unless it says otherwise.
# UniProt Q9HCC0: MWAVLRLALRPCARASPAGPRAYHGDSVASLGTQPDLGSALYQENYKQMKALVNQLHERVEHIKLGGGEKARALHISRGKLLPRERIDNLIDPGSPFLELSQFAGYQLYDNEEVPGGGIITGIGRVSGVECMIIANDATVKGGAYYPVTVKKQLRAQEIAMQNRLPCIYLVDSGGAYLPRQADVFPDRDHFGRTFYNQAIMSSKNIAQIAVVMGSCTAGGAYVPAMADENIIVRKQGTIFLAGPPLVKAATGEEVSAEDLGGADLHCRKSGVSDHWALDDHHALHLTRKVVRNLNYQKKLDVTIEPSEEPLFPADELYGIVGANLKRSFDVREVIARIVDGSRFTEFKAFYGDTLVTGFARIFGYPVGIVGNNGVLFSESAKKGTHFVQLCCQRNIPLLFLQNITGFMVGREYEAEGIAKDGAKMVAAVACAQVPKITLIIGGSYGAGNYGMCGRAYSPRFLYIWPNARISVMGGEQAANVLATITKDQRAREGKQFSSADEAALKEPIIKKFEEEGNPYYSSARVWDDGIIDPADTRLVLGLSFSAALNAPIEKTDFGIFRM
# UniProt O15553: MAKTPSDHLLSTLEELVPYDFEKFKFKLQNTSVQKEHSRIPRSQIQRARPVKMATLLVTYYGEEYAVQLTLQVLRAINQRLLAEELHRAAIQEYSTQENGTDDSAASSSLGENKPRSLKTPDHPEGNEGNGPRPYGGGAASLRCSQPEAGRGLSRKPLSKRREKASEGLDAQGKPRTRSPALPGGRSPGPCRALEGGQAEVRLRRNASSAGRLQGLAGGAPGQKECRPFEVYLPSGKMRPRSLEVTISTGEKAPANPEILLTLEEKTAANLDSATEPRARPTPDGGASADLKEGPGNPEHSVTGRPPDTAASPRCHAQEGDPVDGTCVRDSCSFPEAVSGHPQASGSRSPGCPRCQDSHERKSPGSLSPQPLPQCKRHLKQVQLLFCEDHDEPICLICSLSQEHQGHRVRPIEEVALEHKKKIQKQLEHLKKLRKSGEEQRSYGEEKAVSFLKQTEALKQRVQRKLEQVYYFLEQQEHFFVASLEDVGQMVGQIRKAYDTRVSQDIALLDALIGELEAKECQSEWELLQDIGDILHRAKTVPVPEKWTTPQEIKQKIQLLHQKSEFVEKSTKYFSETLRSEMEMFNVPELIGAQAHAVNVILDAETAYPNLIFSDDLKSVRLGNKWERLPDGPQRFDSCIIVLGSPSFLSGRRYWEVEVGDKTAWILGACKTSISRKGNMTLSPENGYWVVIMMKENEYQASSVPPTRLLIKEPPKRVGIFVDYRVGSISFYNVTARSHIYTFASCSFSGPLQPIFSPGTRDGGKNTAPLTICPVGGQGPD
# UniProt Q15648, whole entry, looked up: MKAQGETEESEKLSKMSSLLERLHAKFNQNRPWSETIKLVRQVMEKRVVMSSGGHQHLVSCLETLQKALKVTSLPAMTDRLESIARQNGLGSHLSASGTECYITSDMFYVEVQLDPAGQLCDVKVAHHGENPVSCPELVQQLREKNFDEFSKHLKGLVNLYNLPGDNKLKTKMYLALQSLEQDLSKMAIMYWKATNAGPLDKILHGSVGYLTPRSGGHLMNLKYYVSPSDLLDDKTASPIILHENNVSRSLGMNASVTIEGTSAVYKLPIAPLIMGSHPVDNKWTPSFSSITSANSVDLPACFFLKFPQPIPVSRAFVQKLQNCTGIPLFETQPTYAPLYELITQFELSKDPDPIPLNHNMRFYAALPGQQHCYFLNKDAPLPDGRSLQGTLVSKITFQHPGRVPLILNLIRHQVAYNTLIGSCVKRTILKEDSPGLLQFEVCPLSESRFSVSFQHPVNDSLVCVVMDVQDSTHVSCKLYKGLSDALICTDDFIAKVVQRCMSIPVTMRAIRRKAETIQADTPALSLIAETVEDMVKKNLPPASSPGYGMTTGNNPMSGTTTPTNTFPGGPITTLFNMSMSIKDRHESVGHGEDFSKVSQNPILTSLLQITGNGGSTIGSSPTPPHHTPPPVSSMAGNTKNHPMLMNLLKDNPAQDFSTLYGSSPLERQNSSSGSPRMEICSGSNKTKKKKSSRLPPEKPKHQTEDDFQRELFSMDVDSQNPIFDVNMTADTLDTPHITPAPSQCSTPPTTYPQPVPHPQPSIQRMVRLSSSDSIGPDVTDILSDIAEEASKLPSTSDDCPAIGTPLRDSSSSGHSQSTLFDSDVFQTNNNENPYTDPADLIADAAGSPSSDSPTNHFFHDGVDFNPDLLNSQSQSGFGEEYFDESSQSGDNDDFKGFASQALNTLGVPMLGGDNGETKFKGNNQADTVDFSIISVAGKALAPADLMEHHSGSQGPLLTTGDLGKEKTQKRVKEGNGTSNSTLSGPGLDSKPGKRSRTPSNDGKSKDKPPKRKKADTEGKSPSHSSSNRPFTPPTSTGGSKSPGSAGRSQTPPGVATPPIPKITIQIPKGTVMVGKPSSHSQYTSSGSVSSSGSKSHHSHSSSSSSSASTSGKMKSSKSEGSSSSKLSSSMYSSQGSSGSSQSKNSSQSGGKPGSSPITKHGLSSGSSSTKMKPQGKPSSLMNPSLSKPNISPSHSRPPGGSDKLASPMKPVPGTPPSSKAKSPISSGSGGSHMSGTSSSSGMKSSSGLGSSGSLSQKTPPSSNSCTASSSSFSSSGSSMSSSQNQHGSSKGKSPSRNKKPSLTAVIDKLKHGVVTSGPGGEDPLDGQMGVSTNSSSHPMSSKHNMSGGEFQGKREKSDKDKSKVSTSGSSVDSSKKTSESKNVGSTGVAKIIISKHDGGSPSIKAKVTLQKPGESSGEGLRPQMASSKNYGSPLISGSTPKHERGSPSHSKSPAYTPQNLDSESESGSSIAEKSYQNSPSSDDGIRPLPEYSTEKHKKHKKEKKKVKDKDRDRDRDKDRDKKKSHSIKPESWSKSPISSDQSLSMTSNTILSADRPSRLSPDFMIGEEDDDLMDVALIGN
# UniProt P50579: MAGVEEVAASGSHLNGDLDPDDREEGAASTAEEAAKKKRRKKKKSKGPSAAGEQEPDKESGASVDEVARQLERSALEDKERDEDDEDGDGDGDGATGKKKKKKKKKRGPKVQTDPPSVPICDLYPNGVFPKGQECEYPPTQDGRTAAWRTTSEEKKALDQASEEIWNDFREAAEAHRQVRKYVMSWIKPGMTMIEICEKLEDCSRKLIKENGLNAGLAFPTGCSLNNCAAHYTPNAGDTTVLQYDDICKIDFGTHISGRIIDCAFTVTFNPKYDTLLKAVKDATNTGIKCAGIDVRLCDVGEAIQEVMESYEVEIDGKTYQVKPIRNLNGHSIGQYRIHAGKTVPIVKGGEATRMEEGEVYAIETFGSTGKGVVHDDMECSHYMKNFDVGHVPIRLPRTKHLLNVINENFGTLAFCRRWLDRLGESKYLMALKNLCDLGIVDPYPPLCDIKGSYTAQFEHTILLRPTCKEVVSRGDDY
# UniProt P40925: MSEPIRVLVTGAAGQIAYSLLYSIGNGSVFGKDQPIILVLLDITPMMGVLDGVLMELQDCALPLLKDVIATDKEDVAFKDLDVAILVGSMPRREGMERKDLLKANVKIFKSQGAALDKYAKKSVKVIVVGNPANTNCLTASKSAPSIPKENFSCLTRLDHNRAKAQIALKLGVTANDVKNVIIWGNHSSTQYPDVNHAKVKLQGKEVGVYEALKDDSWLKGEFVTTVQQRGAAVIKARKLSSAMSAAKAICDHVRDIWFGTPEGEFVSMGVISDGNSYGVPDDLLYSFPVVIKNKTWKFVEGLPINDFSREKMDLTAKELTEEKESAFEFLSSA
# UniProt P33993, whole entry, looked up: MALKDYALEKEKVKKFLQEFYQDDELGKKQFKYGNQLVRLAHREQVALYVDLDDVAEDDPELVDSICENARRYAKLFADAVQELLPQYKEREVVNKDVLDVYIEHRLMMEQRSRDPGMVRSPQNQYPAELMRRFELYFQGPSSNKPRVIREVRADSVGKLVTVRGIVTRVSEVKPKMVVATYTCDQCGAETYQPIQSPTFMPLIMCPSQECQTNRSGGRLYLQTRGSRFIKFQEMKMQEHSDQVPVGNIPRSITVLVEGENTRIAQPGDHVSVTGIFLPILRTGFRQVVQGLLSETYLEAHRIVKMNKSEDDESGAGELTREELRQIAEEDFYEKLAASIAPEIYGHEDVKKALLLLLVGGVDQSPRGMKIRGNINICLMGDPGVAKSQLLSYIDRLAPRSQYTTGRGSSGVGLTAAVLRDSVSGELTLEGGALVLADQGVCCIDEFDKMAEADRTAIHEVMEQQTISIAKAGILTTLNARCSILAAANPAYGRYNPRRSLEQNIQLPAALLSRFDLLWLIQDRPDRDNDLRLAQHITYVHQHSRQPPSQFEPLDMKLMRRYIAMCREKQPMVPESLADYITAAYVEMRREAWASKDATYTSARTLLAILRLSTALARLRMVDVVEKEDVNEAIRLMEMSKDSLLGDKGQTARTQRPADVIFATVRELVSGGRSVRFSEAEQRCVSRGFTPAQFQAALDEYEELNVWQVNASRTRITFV
# UniProt O60318: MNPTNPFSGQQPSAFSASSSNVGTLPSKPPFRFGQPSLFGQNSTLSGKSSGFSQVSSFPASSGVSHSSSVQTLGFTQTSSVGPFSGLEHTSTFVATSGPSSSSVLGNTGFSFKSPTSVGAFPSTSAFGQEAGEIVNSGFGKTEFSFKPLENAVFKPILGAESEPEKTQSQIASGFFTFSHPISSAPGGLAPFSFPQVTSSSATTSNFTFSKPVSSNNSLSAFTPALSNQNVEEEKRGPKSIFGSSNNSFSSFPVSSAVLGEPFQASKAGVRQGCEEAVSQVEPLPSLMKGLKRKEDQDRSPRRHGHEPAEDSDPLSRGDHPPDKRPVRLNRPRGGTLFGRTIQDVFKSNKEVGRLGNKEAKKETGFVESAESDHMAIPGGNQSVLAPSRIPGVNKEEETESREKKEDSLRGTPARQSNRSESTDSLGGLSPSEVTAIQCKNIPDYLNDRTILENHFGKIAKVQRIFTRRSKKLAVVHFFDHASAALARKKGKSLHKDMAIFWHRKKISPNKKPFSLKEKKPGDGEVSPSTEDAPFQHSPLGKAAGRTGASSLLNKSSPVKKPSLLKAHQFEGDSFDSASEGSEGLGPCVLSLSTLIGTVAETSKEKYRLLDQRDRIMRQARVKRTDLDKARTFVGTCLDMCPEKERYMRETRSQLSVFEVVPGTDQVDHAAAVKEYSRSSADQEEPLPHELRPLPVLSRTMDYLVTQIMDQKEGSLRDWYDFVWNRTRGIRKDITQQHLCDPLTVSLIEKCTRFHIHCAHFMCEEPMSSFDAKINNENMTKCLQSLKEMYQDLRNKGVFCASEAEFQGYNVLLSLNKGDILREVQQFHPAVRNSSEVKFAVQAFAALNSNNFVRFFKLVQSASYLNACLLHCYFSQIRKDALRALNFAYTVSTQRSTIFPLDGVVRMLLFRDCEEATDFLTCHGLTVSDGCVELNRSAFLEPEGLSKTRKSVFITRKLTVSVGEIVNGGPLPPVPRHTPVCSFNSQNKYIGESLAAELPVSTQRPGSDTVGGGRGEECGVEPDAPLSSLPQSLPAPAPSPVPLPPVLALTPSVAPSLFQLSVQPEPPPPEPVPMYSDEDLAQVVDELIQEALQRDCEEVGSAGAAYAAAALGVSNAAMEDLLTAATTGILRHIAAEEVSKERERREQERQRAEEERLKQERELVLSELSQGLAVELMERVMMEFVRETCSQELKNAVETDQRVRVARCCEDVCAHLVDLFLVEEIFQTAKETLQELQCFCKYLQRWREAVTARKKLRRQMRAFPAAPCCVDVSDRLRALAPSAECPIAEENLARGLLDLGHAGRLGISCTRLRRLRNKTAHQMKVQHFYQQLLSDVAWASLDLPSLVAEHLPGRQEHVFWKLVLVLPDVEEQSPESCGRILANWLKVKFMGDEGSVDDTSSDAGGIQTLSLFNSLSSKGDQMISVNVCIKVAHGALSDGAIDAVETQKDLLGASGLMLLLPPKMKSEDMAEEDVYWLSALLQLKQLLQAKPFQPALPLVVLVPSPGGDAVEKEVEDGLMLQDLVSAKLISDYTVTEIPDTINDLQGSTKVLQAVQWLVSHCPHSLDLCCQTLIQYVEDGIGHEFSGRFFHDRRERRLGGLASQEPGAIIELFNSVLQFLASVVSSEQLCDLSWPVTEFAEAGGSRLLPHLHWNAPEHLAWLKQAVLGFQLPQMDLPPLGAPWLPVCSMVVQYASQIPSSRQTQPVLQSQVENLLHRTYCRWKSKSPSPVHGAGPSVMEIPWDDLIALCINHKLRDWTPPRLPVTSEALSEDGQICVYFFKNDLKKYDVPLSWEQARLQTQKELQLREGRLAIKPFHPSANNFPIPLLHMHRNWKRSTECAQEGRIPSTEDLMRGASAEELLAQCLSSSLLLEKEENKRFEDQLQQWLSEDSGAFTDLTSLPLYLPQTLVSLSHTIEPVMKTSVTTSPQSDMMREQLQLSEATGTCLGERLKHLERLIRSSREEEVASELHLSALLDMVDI
# The other results are listed elsewhere or left out.
# Compound: CC1Cc2ccccc2N1C(=O)C1CCCN(C1)C(=O)CCl (mixture of isomers) [TRIM25 ligand 11 (diastereomer mixture)]
# Assay: probe-labelled cysteine peptide fold change vs DMSO (competition) (log2 fold change); higher = less target engagement (more negative = stronger competition)
# Details: 10 µM; THP-1; incubation time: 4 h
# 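Note: competitive chemoproteomic profiling in live THP-1 cells with an iodoacetamide desthiobiotin (IA-DTB) probe, comparing probe-labelled peptide intensities in compound-treated cells against DMSO-treated controls.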
row,Target,probe-labelled cysteine peptide fold change
1,MCCC2_Q9HCC0_167_LPCIYLVDSGGAYLPR (UniProt Q9HCC0),0.197
2,MEFV_O15553_375_KSPGSLSPQPLPQCK (UniProt O15553),0.0655
3,MED13_Q9UHV7_1228_DCCNDCYLALEHGR (UniProt Q9UHV7),0.0983
4,MCM6_Q14566_636_MHCCDEVQPK (UniProt Q14566),0.0235
5,MED1_Q15648_443_EDSPGLLQFEVCPLSESR (UniProt Q15648),-0.0372
6,METAP2_P50579_135_GQECEYPPTQDGR (UniProt P50579),-0.00959
7,MEFV_O15553_521_ECQSEWELLQDIGDILHR (UniProt O15553),-0.159
8,MDH1_P40925_137_VIVVGNPANTNCLTASK (UniProt P40925),0.00719
9,MCM7_P33993_566_RYIAMCR (UniProt P33993),-0.0636
10,METAP1_P53582_368_SAQFEHTLLVTDTGCEILTR (UniProt P53582),0.0332
11,MED24_O75448_546_ILNPDHPCFRPDSTKVESLVALLNNSSEMK (UniProt O75448),-0.226
12,MCM6_Q14566_91_VYPYLCR (UniProt Q14566),0.0405
13,MEMO1_Q9Y316_55+58_AIIAPHAGYTYCGSCAAHAYK (UniProt Q9Y316),0.0483
14,MFN2_O95140_281_CTSFLVDELGVVDR (UniProt O95140),0.0964
15,MCM3_P25205_319_KAILCLLLGGVER (UniProt P25205),-0.356
16,MDH2_P40926_93_GCDVVVIPAGVPR (UniProt P40926),-0.0615
17,MCM3AP_O60318_740_DITQQHLCDPLTVSLIEK (UniProt O60318),0.0793
18,MCM3AP_O60318_1864_GASAEELLAQCLSSSLLLEK (UniProt O60318),-0.196
19,MFN1_Q8IWA4_513_LCSDFQEDIVFR (UniProt Q8IWA4),0.257

# Same assay, conditions: 50 µM; THP-1; incubation time: 4 h
row,Target,probe-labelled cysteine peptide fold change
1,MCM3AP_O60318_1839_STECAQEGR (UniProt O60318),0.121
2,MED28_Q9H204_93_QTECFFLQK (UniProt Q9H204),-0.336
3,MDH1_P40925_154_ENFSCLTR (UniProt P40925),-0.113
4,MCU_Q8NE86_97_CQFTLKPISDSVGVFLR (UniProt Q8NE86),-0.196
5,METAP1_P53582_194_SCCTSVNEVICHGIPDR (UniProt P53582),0.0744
6,MED26_O95402_598_LNILPYVCLD (UniProt O95402),-0.0632
7,MCM3_P25205_319_AILCLLLGGVERDLENGSHIR (UniProt P25205),0.0632
8,MCEE_Q96PE7_166_DCGGVLVELEQA (UniProt Q96PE7),-0.223
9,MEPCE_Q7L2J0_244_DITDPLSLNTCTDEGHVVLASPLK (UniProt Q7L2J0),-0.0443
10,MCTS1_Q9ULC4_113_FVLSGANIMCPGLTSPGAK (UniProt Q9ULC4),-0.153
11,METAP1_P53582_202_SCCTSVNEVICHGIPDR (UniProt P53582),-0.0135
12,MED1_Q15648_489_GLSDALICTDDFIAK (UniProt Q15648),-0.079
13,MCM6_Q14566_180_YTQPNICR (UniProt Q14566),0.062
14,MELTF_P08582_397_LKPEIQCVSAK (UniProt P08582),-0.00766
15,MCM8_Q9UJA3_411_LIVNSLCPVIFGHELVK (UniProt Q9UJA3),0.0688
16,MCRS1_Q96EZ8_84_CSGSEPSSSEK (UniProt Q96EZ8),-0.0499
17,MED13L_Q71F56_1457_LGQHKPICK (UniProt Q71F56),-0.263
18,MCCC2_Q9HCC0_167_LPCIYLVDSGGAYLPR (UniProt Q9HCC0),0.243
19,MEFV_O15553_375_KSPGSLSPQPLPQCK (UniProt O15553),-0.0174
20,MED13_Q9UHV7_1228_DCCNDCYLALEHGR (UniProt Q9UHV7),-0.00312
21,MCM6_Q14566_636_MHCCDEVQPK (UniProt Q14566),0.0411
22,MED1_Q15648_443_EDSPGLLQFEVCPLSESR (UniProt Q15648),-0.211
23,METAP2_P50579_135_GQECEYPPTQDGR (UniProt P50579),-0.355
24,MEFV_O15553_521_ECQSEWELLQDIGDILHR (UniProt O15553),-0.12
25,MDH1_P40925_137_VIVVGNPANTNCLTASK (UniProt P40925),-0.0592
26,MCM7_P33993_566_RYIAMCR (UniProt P33993),-0.0165
